Laboratory results reported in the supplement of paper PMC12823440, “Inhibitors supercharge kinase turnover through native proteolytic circuits” (Nature, 2025).
Where a name gives a salt, the structure may show the parent alone. This is one part of the list. The calls rarely recur for the same compound in another form.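 Kinases, fused to nanoluciferase, were expressed in K562 cells; luminescence was measured every 4 h from 2 to 18 h as percent of control (DMSO = 100%, positive control = 0%). A time point is decreased if signal falls significantly (2 sigma). Hits were called by the authors by a rule that is not shown; the count of time points alone does not decide it.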

Protein sequences, listed by entry. Tags and fused reporters are not part of them.
UniProt P21802, whole entry, looked up: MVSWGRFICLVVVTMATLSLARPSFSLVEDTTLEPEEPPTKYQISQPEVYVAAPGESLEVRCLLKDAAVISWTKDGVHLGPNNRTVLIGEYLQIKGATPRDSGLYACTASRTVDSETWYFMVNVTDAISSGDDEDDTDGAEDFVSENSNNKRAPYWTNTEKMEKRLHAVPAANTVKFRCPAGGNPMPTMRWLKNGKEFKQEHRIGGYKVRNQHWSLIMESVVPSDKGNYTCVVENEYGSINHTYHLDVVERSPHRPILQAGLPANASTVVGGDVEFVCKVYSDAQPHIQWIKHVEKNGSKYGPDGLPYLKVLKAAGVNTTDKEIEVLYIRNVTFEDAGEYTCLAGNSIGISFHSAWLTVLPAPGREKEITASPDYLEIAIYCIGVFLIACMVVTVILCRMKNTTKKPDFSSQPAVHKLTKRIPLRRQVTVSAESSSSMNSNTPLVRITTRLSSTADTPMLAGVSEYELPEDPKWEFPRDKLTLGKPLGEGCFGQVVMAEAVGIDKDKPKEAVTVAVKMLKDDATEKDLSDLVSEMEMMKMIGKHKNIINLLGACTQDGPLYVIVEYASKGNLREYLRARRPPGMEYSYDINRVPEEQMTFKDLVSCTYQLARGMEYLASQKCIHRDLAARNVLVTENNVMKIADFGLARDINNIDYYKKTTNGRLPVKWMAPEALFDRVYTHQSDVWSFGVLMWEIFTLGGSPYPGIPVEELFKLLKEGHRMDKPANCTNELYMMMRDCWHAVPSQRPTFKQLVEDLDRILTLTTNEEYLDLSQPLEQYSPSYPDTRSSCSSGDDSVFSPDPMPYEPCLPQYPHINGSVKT
UniProt P22607, whole entry, looked up: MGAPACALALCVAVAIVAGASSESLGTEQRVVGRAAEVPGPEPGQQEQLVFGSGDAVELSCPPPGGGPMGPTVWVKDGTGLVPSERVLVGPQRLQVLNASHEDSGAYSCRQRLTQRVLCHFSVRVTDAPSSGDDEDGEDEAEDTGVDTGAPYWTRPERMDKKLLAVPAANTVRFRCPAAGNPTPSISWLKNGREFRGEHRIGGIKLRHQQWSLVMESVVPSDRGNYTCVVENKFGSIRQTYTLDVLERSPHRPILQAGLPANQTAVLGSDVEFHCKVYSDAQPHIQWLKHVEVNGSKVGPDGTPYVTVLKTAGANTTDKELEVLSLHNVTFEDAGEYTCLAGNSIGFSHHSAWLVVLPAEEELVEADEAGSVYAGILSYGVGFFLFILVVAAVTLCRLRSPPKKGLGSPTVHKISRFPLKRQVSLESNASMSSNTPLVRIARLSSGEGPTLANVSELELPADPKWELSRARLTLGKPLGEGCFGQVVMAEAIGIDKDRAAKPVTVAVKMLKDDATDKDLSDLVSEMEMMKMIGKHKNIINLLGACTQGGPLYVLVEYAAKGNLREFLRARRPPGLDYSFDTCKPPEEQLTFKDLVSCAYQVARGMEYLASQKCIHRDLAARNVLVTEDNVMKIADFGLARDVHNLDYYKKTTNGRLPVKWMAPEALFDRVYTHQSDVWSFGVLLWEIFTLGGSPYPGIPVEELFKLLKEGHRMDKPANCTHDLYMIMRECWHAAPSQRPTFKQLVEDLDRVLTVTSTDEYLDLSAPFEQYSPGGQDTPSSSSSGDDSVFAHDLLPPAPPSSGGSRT

Target: FGFR2 (UniProt P21802)
Test: kinase-Nluc reporter destabilization hit call (1 = scored as downregulated) (binary); higher = compound decreases kinase abundance
Conditions: K562; 2-18 h

kinase-Nluc reporter destabilization hit call, inactive:
COc1cccc(-c2cc(=O)c3ccccc3o2)c1N (10 µM) 0, C[C@@H]1COC(Nc2ccc3ncnc(Nc4ccc(OCc5nccs5)c(Cl)c4)c3c2)=N1 [Varlitinib] (10 µM) 0, Cc1nc(Nc2cnn(C3CCNCC3)c2)nc2c1N(C)C(=O)c1cc3ccccc3cc1N2C (2.5 µM) 0

Target: FGFR3 (UniProt P22607)
Test: as above
Conditions: K562; 2-18 h

kinase-Nluc reporter destabilization hit call, inactive:
O=c1cc(-c2ccc(O[C@@H]3O[C@H](CO)[C@@H](O)[C@H](O)[C@H]3O)cc2)oc2cc(O)c([C@@H]3O[C@H](CO)[C@@H](O)[C@H](O)[C@H]3O[C@@H]3OC[C@H](O)[C@H](O)[C@H]3O)c(O)c12 [Vaccarin] (10 µM) 0, O=CN1CCN(c2ccc(C=C3C(=O)Nc4ccccc43)cc2)CC1 (10 µM) 0, COc1ccc(Cl)cc1N(CC(=O)Nc1ccc2c(c1)OCO2)S(=O)(=O)c1ccccc1 (2.5 µM) 0, CCc1c(C(=O)NNC(=O)[C@H](O)c2cc(F)cc(F)c2)ccc(O)c1C (10 µM) 0, CN(C)CCn1cc2cc(NC(=O)c3cccc(C(F)(F)F)n3)c(C(C)(C)O)cc2n1 (10 µM) 0, CCC[C@H](C)Oc1nc(N)c2[nH]c(=O)n(CCCCCN3CCCCC3)c2n1 (10 µM) 0, CCOC(=O)c1c(C)[nH]c(C=C2C(=O)Nc3ccccc32)c1C (10 µM) 0, Cc1ccc(NC(=O)N2CCN(c3nc(N)nc4sc(-c5cccnc5)nc34)CC2)cc1 [PI4KIII beta inhibitor 3] (10 µM) 0, CS[C@@]1(C(=O)Nc2ccc3[nH]nc(-c4ccc(OC(C)C)nc4)c3c2)CCN(CC(=O)N2CC=C(c3ccc(-c4ncn(C)n4)cc3)CC2)C1 (2.5 µM) 0, O=C(Nc1ccc(Cl)cc1)C1CN(C(=O)c2cccc(-c3ccco3)c2)CC(F)(F)C1 (stereo unspecified) (2.5 µM) 0, Nc1ccc(Sc2nc3ccccc3s2)c(Cl)c1 [KRAS inhibitor-9] (10 µM) 0, Cn1c(N2CCO[C@@H](c3ccc(F)cc3)C2)nc(-c2ccncn2)cc1=O (10 µM) 0, COc1ccc(CN2CCC(c3ccc4nc(C(=O)N5CCN(Cc6ccc(C(F)(F)F)cc6)CC5)[nH]c4c3)CC2)cn1 (2.5 µM) 0, O=C(O)c1c[nH]c2cc(Cl)c(-c3ccc(C4(O)CCC4)cc3)cc12 (10 µM) 0, CC(C)(Oc1ccc(Cl)cc1)C(=O)Nc1ccc(OCc2ccc(C#N)cc2)cc1 [AMPK activator 4] (10 µM) 0, O=C(NCc1ccn[nH]1)c1cc([C@@H]2CCNC[C@H]2COc2ccc3c(c2)OCO3)ccc1F [GRK2-IN-1 (hydrochloride)] (10 µM) 0, Cc1cnc(Cl)nc1-c1ccc(N(Cc2ccc(CNC(=O)C(F)F)cc2)C(=O)c2ccc(O)cc2O)cc1 (10 µM) 0, CC1=C(C#N)C(c2ccc3[nH]nc(C)c3c2)C(C#N)=C(C)N1 (10 µM) 0, CN(C[C@@H]1COCCO1)S(=O)(=O)Nc1ccc2ccc3ncc(-c4cnn(C)c4)cc3c(=O)c2c1 (2.5 µM) 0, CC(=O)Nc1nc(C)c(-c2cc(C)c3c(c2)CN([C@@H](C)C2CC2)C3=O)s1 (10 µM) 0, O=C(Nc1ccccc1C(=O)NC1CCCCNC1=O)c1cc2ccccc2s1 (stereo unspecified) (10 µM) 0, CO[C@]1(C(=O)N[C@@H](C)c2ccc(-n3cc(F)cn3)nc2)CC[C@H](c2nc(C)cc(Nc3cc(C)[nH]n3)n2)CC1 [Pralsetinib] (10 µM) 0, O=[N+]([O-])c1ccc(-c2nc(-c3ccc(F)cc3)c(-c3ccncc3)[nH]2)cc1 (10 µM) 0, CC(ONC(=O)c1cc(C(F)(F)F)cc(C(F)(F)F)c1)C(=O)Nc1ccc(Cl)cc1 (stereo unspecified) (2.5 µM) 0, Cc1cncc2cccc(S(=O)(=O)N3CCCNC[C@@H]3C)c12 [H-1152 (dihydrochloride)] (10 µM) 0, Cc1nc(NC(=O)N2CCC[C@H]2C(N)=O)sc1-c1ccnc(C(C)(C)C(F)(F)F)c1 [Alpelisib] (2.5 µM) 0, CCCCNc1ncc2c(-c3ccc(F)cc3)nn(CC3CCC(N)CC3)c2n1 (stereo unspecified) (2.5 µM) 0, CS(=O)(=O)c1ccc([C@@H](CC2CCCC2)C(=O)Nc2nccs2)cc1 (10 µM) 0, CO/N=C1/C(c2c(O)[nH]c3cc(Cl)c(Cl)cc23)=Nc2ccccc21 (10 µM) 0, CNCc1ccccc1Sc1cccc2ccccc12 [IFN alpha-IFNAR-IN-1 (hydrochloride)] (10 µM) 0, C=CC(=O)N1CCC(c2ccc(C(N)=O)c(-c3ccc(Oc4ccccc4)cc3)n2)CC1 [Orelabrutinib] (2.5 µM) 0, Cc1cc2c(F)c(Oc3ncnn4cc(OC[C@@H](C)OC(=O)[C@H](C)N)c(C)c34)ccc2[nH]1 [Brivanib (alaninate)] (10 µM) 0, CCC(F)(F)c1cc(N2CCC(S(C)(=O)=O)CC2)nc2sc(C(N)=O)c(N)c12 (10 µM) 0, NC(=O)c1c(NC(=O)C2CC2)sc2c1CCCC2 (10 µM) 0, CC(C)=CCC[C@](C)(O[C@@H]1O[C@H](CO[C@@H]2O[C@H](CO)[C@@H](O)[C@H](O)[C@H]2O)[C@@H](O)[C@H](O)[C@H]1O)[C@H]1CC[C@]2(C)[C@@H]1[C@H](O)C[C@@H]1[C@@]3(C)CC[C@H](O[C@@H]4O[C@H](CO)[C@@H](O)[C@H](O)[C@H]4O[C@@H]4O[C@H](CO)[C@@H](O)[C@H](O)[C@H]4O)C(C)(C)[C@@H]3CC[C@]12C [Ginsenoside Rb1] (10 µM) 0, COc1cccc(-c2cc(=O)c3ccccc3o2)c1N (10 µM) 0, C[C@@H]1COC(Nc2ccc3ncnc(Nc4ccc(OCc5nccs5)c(Cl)c4)c3c2)=N1 [Varlitinib] (10 µM) 0, Cc1nc(Nc2cnn(C3CCNCC3)c2)nc2c1N(C)C(=O)c1cc3ccccc3cc1N2C (2.5 µM) 0
